Measured values reported in PubChem BioAssay AID485314 (National Center for Advancing Translational Sciences (NCATS), 2010).
Values joined by “and” are separate entries in the source; they are usually repeats but may differ in a detail not shown here. Equal entries are not always repeated. Among all 340,000 compounds or so, about 4,500 (1.3%) were called active. The inconclusive results got no clear call from the source; some entries with a clear call stand among them for comparison. Calls come from the whole dose curve; as a rule, active = well fitted inhibition curve with a large enough effect; inconclusive = small, poorly fitted or top-dose-only effect, or another doubt; inactive = no such curve, though single readings can be large or run the other way. Potencies of inconclusive entries are doubtful fits and often do not repeat.

Biological target: DNA polymerase beta (Homo sapiens) (UniProt P06746)
Assay: qHTS Assay for Inhibitors of DNA Polymerase Beta
Conditions: Pol beta primer extension/strand displacement, fluorescence kinetic; activity change, negative = inhibition: at 114 µM (top of the series)
How it was run: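 Values derive from four-parameter Hill fits of normalized kinetic data: reads at 0 and 10 min following addition of 50 nM substrate to 10 nM Pol beta preincubated 15 min with compound.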
% is set by controls: 0 for no effect and ±100 for the full control effect; potency is the fitted concentration of half-maximal effect.

Q: `CC/C(=N\NC(=O)CCC(=O)NCc1ccccc1)c1ccc(O)cc1` was tested. Which Potency did it give?
A: The Potency was “inactive”.

Q: How did the Potency turn out when `CCC(C(=O)NCc1ccco1)n1nc(-c2ccc(OC)cc2)ccc1=O` (centres undefined) was run?
A: Its Potency is active: 44.7 µM.

Q: For `O=C(C1CCC1)N1CCCc2cc(S(=O)(=O)Nc3ccc(F)cc3)ccc21`, which Potency is on record?
A: The Potency was “inactive”.

Q: Which Potency does the source give for `C#CC(C)(CC)NC(=O)c1cc2c(n(-c3ccc(Cl)cc3)c1=O)CC(C)(C)CC2=O` (centres undefined) here?
A: The Potency was “inactive”.

Q: Which Potency does the source give for `C=CCNC(=O)c1ccc2c3n(nc2c1)-c1ccc(C)cc1CO3` here?
A: Its Potency is inconclusive: 89.1 µM [inhibitor, single point].

Q: Which Potency does the source give for `C=CCn1c(SCC(=O)Nc2sccc2C(N)=O)nc2sc(C)c(C)c2c1=O` here?
A: Its Potency is inconclusive: 44.7 µM [inhibitor, partial curve].

Q: How did the Potency turn out when `Cc1ccc(Cn2c(CNS(=O)(=O)c3ccc(C(C)(C)C)cc3)nc3cccnc32)cc1` was run?
A: Its Potency is inconclusive: 89.1 µM [inhibitor, single point].

Q: `Cc1nn(CC(=O)N2CCN(C)CC2)c(=O)c2ccccc12` was tested. Which Potency did it give?
A: Its Potency is inconclusive: 89.1 µM [inhibitor, single point].

Q: `O=C(O)c1ccc(N/N=C/c2ccc(OC(=O)c3cccc(Cl)c3)cc2)cc1` was tested. Which activity change, negative = inhibition did it give?
A: The activity change, negative = inhibition was inconclusive: -39.4% [inhibitor].

Q: With `C[C@H](Cc1ccc(O)c(O)c1)[C@@H](C)Cc1ccc(O)c(O)c1` as the compound, how does the Potency read?
A: Its Potency is active: 0.794 µM.

Q: How did the activity change, negative = inhibition turn out when `Cc1ccc(C)c(SCc2nc3sc(C(=O)O)c(C)c3c(=O)[nH]2)c1` was run?
A: The activity change, negative = inhibition was inconclusive: -53.8% [inhibitor].

Q: `Cc1ccc(OCC(=O)OCc2cc(=O)n3nc(-c4cccs4)sc3n2)cc1` was tested. Which Potency did it give?
A: The Potency was inconclusive: 39.8 µM [inhibitor, partial curve, poor fit].

Q: For `O=C(N/N=C/c1ccsc1)c1cc2ccccc2o1`, which activity change, negative = inhibition is on record?
A: Its activity change, negative = inhibition is inconclusive: -39% [inhibitor].

Q: Which Potency does the source give for `Cc1ccccc1OCC(=O)Nc1ccc2nc(SCC(=O)N(C)c3ccccc3)sc2c1` here?
A: Its Potency is “inactive”.

Q: With `COc1ccc(C(=O)NCCSc2ccccc2)cc1OC` as the compound, how does the Potency read?
A: The Potency was “inactive”.

Q: For `C=CCNCC(O)COc1ccc(C(C)=O)cc1OC` (centres undefined), which Potency is on record?
A: The Potency was inconclusive: 100 µM [inhibitor, single point].

Q: `COc1ccc(CCNC(=O)c2cccc(-n3c(C)nc4cccnc43)c2)cc1OC` was tested. Which Potency did it give?
A: Its Potency is inconclusive: 2 µM [inhibitor, partial curve, poor fit].

Q: `COc1ccc(C(=O)OCC(=O)NC(C)(C)C)cc1[N+](=O)[O-]` was tested. Which Potency did it give?
A: The Potency was “inactive”.

Q: With `Cc1cc(C(=O)NNC(=S)NCc2ccco2)n(C)n1` as the compound, how does the Potency read?
A: Its Potency is inconclusive: 79.4 µM [inhibitor, single point].

Q: With `Cc1ccc(SC(C)C(=O)N2CCN(c3ccccc3)CC2)cc1` (centres undefined) as the compound, how does the Potency read?
A: The Potency was inconclusive: 100 µM [inhibitor, single point].

Q: With `COc1ccc(CN2CCN(Cc3ccco3)CC2)c(OC)c1` as the compound, how does the Potency read?
A: Its Potency is inconclusive: 1.58 µM [inhibitor, full curve, poor fit].

Q: Which Potency does the source give for `CCOC(=O)c1ccccc1NC(=O)Nc1cc2c(cc1N1CCCCC1)n(C)c(=O)n2C` here?
A: The Potency was “inactive”.

Q: How did the Potency turn out when `COc1ccc(C2c3ccsc3CCN2C(=O)NC(C)(C)C)cc1` (centres undefined) was run?
A: The Potency was inconclusive: 3.16 µM [inhibitor, full curve].

Q: With `CC(=O)c1ccc(NC(=O)CC2Nc3cccc4cccc(c34)NC2=O)cc1` (centres undefined) as the compound, how does the Potency read?
A: Its Potency is “inactive and inconclusive: 2.51 µM [inhibitor, full curve, poor fit]”.

Q: Which Potency does the source give for `Nc1nnc(SCC(=O)OCC(=O)NC2CCCCC2)s1` here?
A: The Potency was inconclusive: 1.26 µM [inhibitor, full curve, poor fit].

Q: Which Potency does the source give for `O=C(O)CCc1ccc(-c2cccs2)n1NC(=O)c1ccccc1Br` here?
A: The Potency was inconclusive: 11.2 µM [inhibitor, partial curve].

Q: With `CCc1ccc(NC(=S)N2CCC(NC(=O)c3ccccc3)CC2)cc1` as the compound, how does the Potency read?
A: The Potency was inconclusive: 100 µM [inhibitor, single point].

Q: For `CCCC(=O)N1CCN(Cc2nc3cc([N+](=O)[O-])ccc3n2C)CC1`, which Potency is on record?
A: The Potency was “inactive”.

Q: `CCC(=O)Oc1ccc(C/C(=N\O)c2ccc(O)cc2O)o1` was tested. Which Potency did it give?
A: Its Potency is inconclusive: 17.8 µM [inhibitor, partial curve, poor fit].

Q: `CC1=C(c2ccc(C)c(C)c2)S(=O)(=O)N=C1N1CCC(C(=O)NCCc2ccco2)CC1` was tested. Which Potency did it give?
A: The Potency was “inactive”.

Q: Which Potency does the source give for `CN1CCN(/C(=N\O)c2nonc2N)CC1` here?
A: The Potency was inconclusive: 0.316 µM [inhibitor, full curve, poor fit].

Q: How did the Potency turn out when `Cc1ccc(-c2cc(C(=O)N3CCN(S(=O)(=O)c4ccc(Br)cc4)CC3)[nH]n2)cc1C` was run?
A: Its Potency is “inactive”.

Q: How did the Potency turn out when `CCc1nnc(SCC(=O)N2CCCc3ccccc32)nc1CC` was run?
A: Its Potency is inconclusive: 39.8 µM [inhibitor, partial curve].

Q: `CCCN=C1CC(C)(C)CC(=O)/C1=C(/O)CCC` was tested. Which Potency did it give?
A: Its Potency is inconclusive: 1.78 µM [inhibitor, full curve, poor fit].

Q: With `Cc1n[nH]c(C)c1S(=O)(=O)N(CC(=O)NC(C)c1ccccc1)c1ccc(C(C)C)cc1` (centres undefined) as the compound, how does the Potency read?
A: Its Potency is inconclusive: 89.1 µM [inhibitor, single point].

Q: `COc1ccc(C(=O)NCCn2cc(SCC(=O)NCCc3ccc(OC)c(OC)c3)c3ccccc32)cc1` was tested. Which Potency did it give?
A: The Potency was “inactive”.

Q: With `O=C(O)COc1ccc2c(c1)O/C(=C\c1ccco1)C2=O` as the compound, how does the Potency read?
A: The Potency was active: 31.6 µM.

Q: Which Potency does the source give for `O=S(=O)(c1ccc(Br)cc1)c1nc(-c2ccco2)oc1NCC1CCCO1` (centres undefined) here?
A: Its Potency is inconclusive: 3.55 µM [inhibitor, full curve, poor fit].

Q: Which Potency does the source give for `COc1ccc(C(=O)COc2ccc3ccc(=O)oc3c2)cc1` here?
A: The Potency was inconclusive: 89.1 µM [inhibitor, single point].

Q: How did the Potency turn out when `O=C(O)c1csc(-n2nc(-c3ccccc3)cc2C(F)(F)F)n1` was run?
A: The Potency was inconclusive: 20 µM [inhibitor, partial curve, poor fit].

Q: With `CCOc1ccccc1NC(=O)Cn1cnc2sc(C)c(S(=O)(=O)N3CCC(C)CC3)c2c1=O` as the compound, how does the Potency read?
A: Its Potency is “inactive”.

Q: For `O=C(Cc1cccs1)N/N=C\c1ccc([N+](=O)[O-])s1`, which Potency is on record?
A: The Potency was “inactive”.

Q: With `Cc1nc(NCCc2ccccc2)c2nnn(Cc3ccccc3)c2n1` as the compound, how does the Potency read?
A: Its Potency is “inactive”.

Q: With `COc1ccc(OC)c(CCNC(=O)Cn2nc(C)c3c(C)n(-c4ccc(C)cc4)nc3c2=O)c1` as the compound, how does the Potency read?
A: The Potency was inconclusive: 112 µM [inhibitor, partial curve, poor fit].

Q: `CCN(c1ccc(OC)cc1)S(=O)(=O)c1nnc(NC(=O)COc2ccc(C)cc2)s1` was tested. Which Potency did it give?
A: Its Potency is active: 7.94 µM.

Q: For `CC(C)OCCCNC(=O)c1cc2c(-c3ccc(Cl)cc3)nn(C)c2s1`, which Potency is on record?
A: Its Potency is inconclusive: 7.94 µM [inhibitor, full curve].

Q: `O=C(N/N=C/c1ccco1)c1ccc(NC(=O)C2CC2)cc1` was tested. Which Potency did it give?
A: The Potency was inconclusive: 22.4 µM [inhibitor, partial curve].

Q: How did the Potency turn out when `O=C(O)C1CC=CCC1C(=O)NCCc1ccccc1` (centres undefined) was run?
A: The Potency was inconclusive: 89.1 µM [inhibitor, single point].

Q: With `COc1cc(C)c(C(=O)Oc2cc(C)c(C(=O)O)c(O)c2)c(O)c1` as the compound, how does the Potency read?
A: The Potency was inconclusive: 89.1 µM [inhibitor, single point].

Q: How did the Potency turn out when `COc1cc2c(cc1OC)CN(C(=O)/C=C/c1ccc([N+](=O)[O-])cc1)CC2` was run?
A: The Potency was “inactive”.

Q: With `O=C(Nc1nc2n(n1)C(c1ccccc1)C=C(c1ccccc1)N2)c1ccc(Cl)c([N+](=O)[O-])c1` (centres undefined) as the compound, how does the Potency read?
A: The Potency was “inactive”.

Q: How did the Potency turn out when `CCc1cccc(NC(=O)Cn2nc(-c3ccc(OC)cc3)ccc2=O)c1` was run?
A: Its Potency is “inactive”.

Q: How did the Potency turn out when `COc1cccc(C(=O)N2c3cc(C)ccc3C(C)(c3ccccc3)CC2(C)C)c1` (centres undefined) was run?
A: The Potency was “inactive”.

Q: With `CCn1c(CC(=O)Nc2ccccc2)nnc1SCC(=O)Nc1nncs1` as the compound, how does the Potency read?
A: Its Potency is inconclusive: 89.1 µM [inhibitor, single point].

Q: Which Potency does the source give for `CCCn1c2ccccc2c2cnn(CC(=O)N3CCC(C)CC3)c(=O)c21` here?
A: Its Potency is inconclusive: 89.1 µM [inhibitor, single point].

Q: `CCCn1c(SCC(=O)NCc2ccc(OC)cc2)n[nH]c1=O` was tested. Which Potency did it give?
A: Its Potency is inconclusive: 39.8 µM [inhibitor, single point].

Q: `Cc1ccccc1C(=O)N=c1c(C#N)cc2c(=O)n3cccc(C)c3nc2n1Cc1ccco1` was tested. Which Potency did it give?
A: Its Potency is inconclusive: 0.1 µM [inhibitor, full curve, poor fit].

Q: With `CC(C(=O)NN)n1nnc(N2CCOCC2)n1` (centres undefined) as the compound, how does the Potency read?
A: The Potency was inconclusive: 63.1 µM [inhibitor, single point].

Q: Which Potency does the source give for `Cn1nc(-c2ccc(C(=O)Nc3ccc(F)cc3)cc2)c2ccccc2c1=O` here?
A: The Potency was active: 15.8 µM.

Q: How did the Potency turn out when `COc1ccc2cc(-c3nc4ccc(C(=O)O)cc4[nH]3)c(=O)oc2c1` was run?
A: The Potency was inconclusive: 15.8 µM [inhibitor, full curve, poor fit].

Q: For `Cc1ccc(C)c(N(C(=O)c2csnn2)C(C(=O)NC2CCCCC2)c2cccnc2)c1` (centres undefined), which Potency is on record?
A: The Potency was “inactive”.

Q: Which Potency does the source give for `C=Cc1ccc(Cn2nc(-c3ccc(C)c(S(=O)(=O)N(CC)CC)c3)ccc2=O)cc1` here?
A: The Potency was “inactive”.

Q: Which Potency does the source give for `Cc1cccn2c(=O)c3cc(C#N)c(=O)n(-c4nnc(SCc5ccccc5F)s4)c3nc12` here?
A: Its Potency is “inactive”.

Q: How did the Potency turn out when `CN1CCN(C(=O)/C(=C/c2ccc(N(C)C)cc2)NC(=O)c2ccccc2)CC1` was run?
A: The Potency was inconclusive: 112 µM [inhibitor, partial curve, poor fit].

Q: `O=C(O)CSc1c2c(nc3cc(C(=O)Nc4ccc(F)c(Cl)c4)ccc13)CCC2` was tested. Which Potency did it give?
A: Its Potency is inconclusive: 50.1 µM [inhibitor, partial curve, poor fit].

Q: Which Potency does the source give for `O=C(Nc1ccc(NC(=O)c2ccco2)c(Cl)c1)c1ccccc1` here?
A: The Potency was inconclusive: 20 µM [inhibitor, partial curve, poor fit].

Q: With `O=C(Nc1ccc(C(F)(F)F)cc1)C1CCCN(c2cnccn2)C1` (centres undefined) as the compound, how does the Potency read?
A: The Potency was inconclusive: 39.8 µM [inhibitor, single point].

Q: Which Potency does the source give for `C=C(C)CCOC(=O)C(CC(=O)O)NCc1ccco1` (centres undefined) here?
A: The Potency was active: 8.91 µM.

Q: With `O=C(/C=C/c1ccco1)Nc1cccc(-c2nc3ccccc3[nH]2)c1` as the compound, how does the Potency read?
A: Its Potency is inconclusive: 70.8 µM [inhibitor, single point].
